The other results are listed elsewhere or left out. Many values rest on one well or one pass, so single values are uncertain.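 Cells were imaged in 1,536-well plates, and nuclei stained with an antibody against cleaved PARP were counted against all DNA-stained nuclei to give the apoptosis fraction. Screening doses were chosen to leave most cells alive, and resting and induced cleaved-PARP levels differ strongly between cell lines.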
System: SkMel5
Assay: cleaved PARP positive nuclei fraction relative to DMSO control; melanoma cells; higher = more apoptosis
Conditions: library dose: low library concentration; 72 h

Compound	cleaved PARP positive nuclei fraction [%]
C=CCn1c(=O)c2cnc(Nc3ccc(N4CCN(C)CC4)cc3)nc2n1-c1cccc(C(C)(C)O)n1 + O=S(=O)(c1ccccc1)N(CC(F)(F)F)c1ccc(C(O)(C(F)(F)F)C(F)(F)F)cc1 [T0901317] (first compound 0.02 µM, partner dose 1.4 µM)	283
CC(C)(C)c1cnc(CSc2cnc(NC(=O)C3CCNCC3)s2)o1 + c1cc(-c2cnn3cc(-c4ccc(OCCN5CCCCC5)cc4)cnc23)ccn1 [Dorsomorphin] (first compound 0.01 µM, partner dose 0.4 µM)	33.8
O=C(CCCCCCC(=O)Nc1ccccc1)NO [vorinostat] + O=S(=O)(c1ccccc1)N(CC(F)(F)F)c1ccc(C(O)(C(F)(F)F)C(F)(F)F)cc1 [T0901317] (first compound 0.08 µM, partner dose 1.4 µM)	38.9
Cn1c(Nc2ccc(C(F)(F)F)cc2)nc2cc(Oc3ccnc(-c4ncc(C(F)(F)F)[nH]4)c3)ccc21 + COC(=O)c1sccc1S(=O)(=O)Nc1ccc(Nc2ccccc2)cc1OC [GSK0660] (first compound 0.08 µM, partner dose 1 µM)	159
C#Cc1cccc(Nc2ncnc3cc(OCCOC)c(OCCOC)cc23)c1 [erlotinib] + O=C(Nc1ccccc1)c1cc([N+](=O)[O-])ccc1Cl [GW9662] (first compound 0.8 µM, partner dose 2 µM)	67.9
Cc1cc(N2CCOCC2)cc2[nH]c(-c3c(NC[C@@H](O)c4cccc(Cl)c4)cc[nH]c3=O)nc12 + O=C(O)C(=O)Nc1sc2c(c1C(=O)O)CCNC2 [TCS401] (first compound 0.2 µM, partner dose 1.66667 µM)	29.9

Reference: the supplement of paper PMC4604168 (melanoma cell lines)
